Drawing on PMC10747525, this text covers binding for one substance.

Sequences of proteins named here, by UniProt entry; tags and fusion partners are left off. A change or cut given only in a name is not applied to a line headed by its entry.
UniProt O95202: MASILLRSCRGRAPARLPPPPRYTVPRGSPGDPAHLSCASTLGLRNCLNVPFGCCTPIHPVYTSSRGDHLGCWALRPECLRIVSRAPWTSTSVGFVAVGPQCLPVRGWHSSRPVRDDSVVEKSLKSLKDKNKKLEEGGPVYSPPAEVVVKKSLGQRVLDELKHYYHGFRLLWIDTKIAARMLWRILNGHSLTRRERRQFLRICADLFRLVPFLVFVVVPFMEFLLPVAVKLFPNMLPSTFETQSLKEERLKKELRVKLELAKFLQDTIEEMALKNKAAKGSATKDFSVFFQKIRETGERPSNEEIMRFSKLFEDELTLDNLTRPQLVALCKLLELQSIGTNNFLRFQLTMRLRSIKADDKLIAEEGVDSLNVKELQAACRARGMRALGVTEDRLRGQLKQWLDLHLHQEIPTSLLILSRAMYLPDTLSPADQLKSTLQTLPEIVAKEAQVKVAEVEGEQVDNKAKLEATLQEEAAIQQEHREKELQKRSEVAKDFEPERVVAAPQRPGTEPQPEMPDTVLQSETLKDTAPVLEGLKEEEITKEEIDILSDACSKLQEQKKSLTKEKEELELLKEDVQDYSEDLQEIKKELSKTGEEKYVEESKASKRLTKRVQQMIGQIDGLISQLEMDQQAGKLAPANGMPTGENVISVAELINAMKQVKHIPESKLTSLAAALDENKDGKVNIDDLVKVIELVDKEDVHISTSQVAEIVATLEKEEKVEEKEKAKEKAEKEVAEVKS

These are yes or no findings as the source states them, for the method shown. Binding seen in cells or lysates may run through a third protein. Binding calls can cover weak binding; strength is not graded here.

The test concerns the target HAdV-C5 E1B-55K (human adenovirus C5 (HAdV-C5)) (UniProt P03243). Description: co-IP.

As for LETM1 (from UniProt O95202), the binding entry is given as “binds”.
